Measurements: PubChem BioAssay AID1347423 (Functional Genomics Laboratory (NCATS/FGL), 2020)
The campaign covered roughly 52,000 sequences. About 210 (0.4%) were called active.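 Rule for the calls: active = gene whose silencing raises cell survival under the drug, median off-target-corrected z-score across its silencing RNAs 2 or more; inactive = the rest.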 This is one part of the list.

test: Resistance to Poly (ADP-Ribose) Polymerase inhibitor: Gene Identification via Genome-wide siRNA Screen; details: mouse BRCA2 R2336H ES cells, olaparib, CellTiter-Glo viability; stronger effect = higher value
Summary of the method: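 Mouse BRCA2 R2336H ES cells were reverse-transfected with siRNA (20 nM final), treated at 48 h with 500 nM olaparib, and read by CellTiter-Glo after 72 h. Scores: MAD-based z per siRNA, median per gene, seed off-target correction.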

| Sequence | z-score |
| --- | --- |
| GGUGAAGCAGUUUGACUUCTT against Rbm18 | inactive: 1.17 |
| GGAGGUUUAUAAAAUCGACTT against Tgfb2 | inactive: -0.718 |
| GGCAAAGCACUGGUUGUGUTT against C130053K05Rik | inactive: 0.195 |
| UGAUGCUAAGACUGAACCATT against Olfr541 | inactive: -0.579 |
| GGAAGACAAUGCAAUAAUUTT against 2810460C24Rik | inactive: -0.0666 |
| GGACAAAAGAAAAGUAUCGTT against Cdx4 | inactive: -0.927 |
| GGCGAUCCACAAGUACAAUTT against Polb | inactive: -0.226 |
| GGGACUCUGAUGGUUUUGATT against Dapp1 | inactive: -0.534 |
| GGCAGAAUUUUCCAACUGATT against Tisp78 | inactive: 1.84 |
| GGAUGAAGAGAAAGACAAGTT against Zipro1 | inactive: -1.71 |
| GCAAAGUUACACAUCAAAGTT against Agtr1 | inactive: 1.32 |
| CCUAUGGAAGGUUUAAGAUTT against Ptpn21 | inactive: 0.314 |
| GGCUAGAGACUUGGUUUUUTT against E430025L02Rik | inactive: 1.23 |
| CCUCUUGGCCUCCUUUGAUTT against Tas2r143 | inactive: -0.729 |
| CCUAGAUGACACUUGGGUGTT against Nup35 | inactive: -1.28 |
| GGGAUAUCCCAGAACAAGATT against D8Ertd531e | inactive: -1.8 |
| CGAAGUUCCCUUUGAGUUUTT against 2610024G14Rik | inactive: 0.888 |
| GGGCCAAUAAAGCAACUGCTT against Laptm5 | inactive: 0.781 |
| GGUAGAAUCCGGUUACCACTT against Tox | inactive: 0.763 |
| GGAGAAGAAGAAAAGAACATT against Pom121 | inactive: -3.12 |
| GUGUAUGCGCUGAUCCUAUTT against 1700020N01Rik | inactive: 2.32 |
| GGGAGCUAGCAAAAUCGGATT against Eif4g3 | inactive: 0.652 |
| GGAACUGCUCAUAAAAACATT against Evi2b | inactive: 1.43 |
| GGGAGACUUUGUACGGAAGTT against Gars | inactive: -2.19 |
| CCAUGGCUUAAAAGCCGAATT against Mapt | inactive: 1.75 |
| GCUAAUUAUUGAGUAUGCGTT against Klhl10 | inactive: 0.612 |

| Sequence | z-score |
| --- | --- |
| GGAAGAUACAAGUCUUUUUTT against Akap12 | inactive: 0.925 |
| CGUACCAGAUGAGCUAAGUTT against Zfp513 | inactive: 0.118 |
| GGAAGACGAAUUCUUAAGUTT against H2-M10.6 | inactive: -0.227 |
| GGCCAUCAUAUCACCAUUUTT against BC025872 | inactive: 1.76 |
| GGAUAUUUGCUUCUUUCACTT against A330008L17Rik | inactive: 0.00592 |
| GGACUAUGUCUUUGACAAUTT against Tcfcp2l2 | inactive: 0.0983 |
| CCAUAGAGAGUGCAGGUGATT against Mrpl39 | inactive: -0.399 |
| GCUUGAUCGCUUUCAACUCTT against 0610011B16Rik | inactive: 0.779 |
| GGACUACAUAAACUUGUACTT against Nme5 | inactive: -1.78 |
| GCGGCUACGUGUUUGACUATT against Csnk1g2 | inactive: 0.339 |
| GGAGAUUGUGAGAGCCAUGTT against Kcnab3 | inactive: -0.137 |
| CCAGUAAGUUGCAUUCGAATT against Defb8 | inactive: 0.188 |
| GGAAUCUGAUACCCAAGGATT against 1700007H16Rik | inactive: -1.4 |
| GGGACAUGGGAAGAACUCUTT against Gpr87 | inactive: 0.542 |
| GGAAAGGAAGAAGAAAUGATT against Rab13 | inactive: 0.291 |
| CCCUUAGGGAGUGCUGUGATT against Gc | inactive: -0.802 |
| GGAAGCAUUGAUUUUCAUCTT against Prok2 | inactive: 0.372 |
| GGACCACAGGGUCAAUUUCTT against Icam5 | inactive: 0.681 |
| CCAUACCGAUCAAAUUCCCTT against Pfn2 | inactive: 0.355 |
| GGCCACACAGAUUAUCUUGTT against V1rc18 | inactive: 0.13 |
| GCUAAGAACAUUCACAUAATT against Pon3 | inactive: -0.694 |
| GGAAGCAGAGCCCGAAAAATT against MGC67311 | inactive: -0.223 |
| GGCAGAAUAAUAAUCCACATT against Ovol1 | inactive: 0.271 |
| CCUAGGGUAUUCAAUCAUGTT against Nfya | inactive: -0.711 |
| CCGUGUGGUCUGAUAAAAGTT against Fbxl8 | inactive: -0.881 |
| GGAUUCCAGAUUAAAUGAUTT against Recc1 | inactive: -0.171 |

2 neighbouring entries out of the list so far, quoted:

| Sequence | z-score |
| --- | --- |
| GGAAGACAAUGCAAUAAUUTT against 2810460C24Rik | inactive: -0.0666 |
| GGACAAAAGAAAAGUAUCGTT against Cdx4 | inactive: -0.927 |
